# Data published in the supplement of paper PMC9454738.
# ± gives the standard deviation of the averaged measurements. This is one part of the list. This data set is noisy: repeats of one test often differ as much as different tests do.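 Triple-negative MDA-MB-231 breast cancer cells and their brain-metastatic MDA-MB-231BRM derivative each stably expressed empty vector, full-length GLI1 or truncated tGLI1. CellTiter-Blue measured viability at 48 h relative to 1% DMSO vehicle. Compounds reducing viability 20% more in tGLI1 cells than in vector and GLI1 cells counted as tGLI1-selective.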
# Columns and labels:
# Assay in all cases: cell viability relative to vehicle (DMSO) control (fraction); higher = more viable cells (less growth inhibition)
# Settings in all cases: treatment time 48 h
# MDA-MB-231 GLI1 = tested on: MDA-MB-231 GLI1
# MDA-MB-231 Vector = tested on: MDA-MB-231 Vector
# MDA-MB-231 tGLI1 = tested on: MDA-MB-231 tGLI1
# MDA-MB-231BRM GLI1 = tested on: MDA-MB-231BRM GLI1
# MDA-MB-231BRM Vector = tested on: MDA-MB-231BRM Vector
# MDA-MB-231BRM tGLI1 = tested on: MDA-MB-231BRM tGLI1
Compound,cell viability (MDA-MB-231 GLI1; 0.05 µM),cell viability (MDA-MB-231 GLI1; 0.5 µM),cell viability (MDA-MB-231 GLI1; 5 µM),cell viability (MDA-MB-231 Vector; 0.05 µM),cell viability (MDA-MB-231 Vector; 0.5 µM),cell viability (MDA-MB-231 Vector; 5 µM),cell viability (MDA-MB-231 tGLI1; 0.05 µM),cell viability (MDA-MB-231 tGLI1; 0.5 µM),cell viability (MDA-MB-231 tGLI1; 5 µM),cell viability (MDA-MB-231BRM GLI1; 0.05 µM),cell viability (MDA-MB-231BRM GLI1; 0.5 µM),cell viability (MDA-MB-231BRM GLI1; 5 µM),cell viability (MDA-MB-231BRM Vector; 0.05 µM),cell viability (MDA-MB-231BRM Vector; 0.5 µM),cell viability (MDA-MB-231BRM Vector; 5 µM),cell viability (MDA-MB-231BRM tGLI1; 0.05 µM),cell viability (MDA-MB-231BRM tGLI1; 0.5 µM),cell viability (MDA-MB-231BRM tGLI1; 5 µM)
Cc1c(NC(=O)c2ccc(C(C)(C)C)cc2)cccc1-c1cn(C)c(=O)c(Nc2ccc(C(=O)N3CCOCC3)cc2)n1,1.4,1.75,1.04,1.36,1.47,1.34,1.31,1.42,1.09,1.1,0.975,0.766,1.12,1.01,0.725,1.02,0.981,0.745
C[C@@H](O[C@H]1OCCN(Cc2n[nH]c(=O)[nH]2)[C@H]1c1ccc(F)cc1)c1cc(C(F)(F)F)cc(C(F)(F)F)c1 [Aprepitant (MK-0869)],1.24,1.04,0.928,0.934,1.41,0.977,1.03,1.12,0.963,0.985,1,0.924,1.02,0.984,0.823,1.08,0.98,0.981
Nc1nc(N)c(N=O)c(OCC2CCCCC2)n1,1.39,1.58,0.72,1.5,1.39,1.04,1.43,1.39,1.13,1.05,1.01,0.957,1.15,1.04,1.02,1.01,1.01,0.959
CC(C)(C#N)c1ccc(N2C(=O)OCc3cnc4ccc(-c5cnc6ccccc6c5)cc4c32)cc1,1.12,0.887,0.278,0.669,0.364,0.0378,0.55,0.388,0.075,0.592,0.463,0.483,0.533,0.448,0.445,0.73,0.613,0.734
CC(=O)Oc1cc2c(s1)CCN(C(C(=O)C1CC1)c1ccccc1F)C2 (centres undefined) [Prasugrel (Effient)],1.1,1.16,1.15,0.99,1.16,0.994,0.953,1.15,1.03,1.04,1.04,0.95,1.01,1,0.992,1.15,1.02,1.07
NCC(=O)Nc1ccc(-n2nc(C(F)(F)F)cc2-c2ccc3c(ccc4ccccc43)c2)cc1,0.839,0.765,-0.0771,0.933,0.643,0.023,0.93,0.683,-0.0266,0.968,1,0.936,0.967,1.06,0.888,0.964,1.1,0.784
O=C1NCCc2[nH]c(-c3ccncc3)cc21,1.3,1.24,0.185,1.31,1.2,0.281,1.43,1.1,0.227,1.03,1.09,1.01,1.11,1.16,0.953,1.13,1.19,0.894
CC(C)Nc1cc(-c2c[nH]c(C(=O)N[C@H](CO)c3cccc(Cl)c3)c2)c(Cl)cn1,1.87,1.88,1.02,1.32,0.802,0.575,1.21,0.946,0.694,0.812,0.765,0.601,0.909,0.761,0.66,1.11,1.02,0.946
COc1cc(Nc2c(C#N)cnc3cc(OCCCN4CCN(C)CC4)c(OC)cc23)c(Cl)cc1Cl [Bosutinib (SKI-606)],1.02 ± 0.51,1.08 ± 0.097,0.468 ± 0.55,1.27 ± 0.44,0.963 ± 0.34,0.454 ± 0.39,0.993 ± 0.48,1.048 ± 0.0092,0.382 ± 0.48,0.934 ± 0.06,0.876 ± 0.083,0.985 ± 0.24,0.936 ± 0.018,0.949 ± 0.019,0.993 ± 0.15,0.981 ± 0.039,0.905 ± 0.047,0.952 ± 0.075
O=C(O)c1ccc(Nc2ncc3c(n2)-c2ccc(Cl)cc2C(c2c(F)cccc2F)=NC3)cc1,1.31,1.59,0.852,1.5,0.947,0.725,1.24,1.19,0.704,0.968,1.02,0.95,1.05,0.93,1.02,1.03,0.98,0.936
Nc1ccc(-c2ccc3ncc4ccc(=O)n(-c5cccc(C(F)(F)F)c5)c4c3c2)cn1 [Torin 2],0.337,0.212,0.101,0.402,0.282,0.208,0.388,0.228,0.222,0.958,1.03,0.876,0.951,1.01,0.959,0.925,0.964,0.816
CCN1CCN(Cc2ccc(-c3cc4c(N[C@H](C)c5ccccc5)ncnc4[nH]3)cc2)CC1,1.39,1.39,0.4,1.17,1.21,0.75,0.462,1.37,0.227,1.19,0.495,0.578,0.744,0.855,0.424,0.596,0.544,0.568
Fc1cc(-c2cccc3ncc(-c4cnn(C5CCNCC5)c4)nc23)cc(F)c1CN1CCOCC1,0.896,1,0.0438,1.02,1.16,0.344,1.14,1,0.234,1.05,0.972,1.01,1.06,0.958,0.948,1,1.01,0.854

# Some entries already given with just cell viability (MDA-MB-231 Vector; 0.05 µM), cell viability (MDA-MB-231 Vector; 0.5 µM) and cell viability (MDA-MB-231BRM tGLI1; 0.5 µM).
Compound | cell viability (MDA-MB-231 Vector; 0.05 µM) | cell viability (MDA-MB-231 Vector; 0.5 µM) | cell viability (MDA-MB-231BRM tGLI1; 0.5 µM)
CC(C)(C#N)c1ccc(N2C(=O)OCc3cnc4ccc(-c5cnc6ccccc6c5)cc4c32)cc1 | 0.669 | 0.364 | 0.613
CC(=O)Oc1cc2c(s1)CCN(C(C(=O)C1CC1)c1ccccc1F)C2 (centres undefined) [Prasugrel (Effient)] | 0.99 | 1.16 | 1.02
